Patent US20200405832A1 (MINERVA BIOTECHNOLOGIES, published 2020)
Results are given in words; binding and its absence hold for the method and conditions named. Binding can be weak; no strength is given.

B1: mouse monoclonal antibody MN-C3 (antibody, V domains shown)
VH: QVQLQQSGPELVRPGVSVKISCKGSGYRFTDYAMNWVKQSHAKSLEWIGVISTFSGNTNFNQKFKGKATMTVDKSSSTAYMELARLTSEDSAMYYCARSDYYGPYFDYWGQGTTLTVSS
VL: DVLMTQTPLSLPVSLGDQASISCRSSQTIVHSNGNTYLEWYLQKPGQSPKLLIYKVSNRFSGVPDRFSGSGSGTDFTLKINRVEAEDLGVYYCFQGSHVPFTFGSGTKLEIK
notes: also called Min-C3
B2: mouse monoclonal antibody MN-E6 (antibody, V domains shown)
VH: EVKVVESGGDLVKPGGSLKLSCVVSGFTFSRYGMSWVRQTPGKRLEWVATISGGGTYIYYPDSVKGRFTISRDNAKNTLYLQMSSLKSEDTAMYHCTRDNYGRNYDYGMDYWGQGTSVTVSS
VL: QIVLTQSPAIMSASPGEEVTLTCSATSSVSYIHWFQQRPGTSPKLWIYSTSNLASGVPVRFSGSGYGTSYSLTISRMEAEDAATYYCQQRSSSPFTFGSGTKLEIK
notes: also called Min-E6

Target: MUC1* as on MUC1* positive bone marrow cells (hematopoietic stem cells of the bone marrow) (Homo sapiens (Human))
Experiment: FACS on bone marrow cells

Row | Binder | binding
1 | B1 | binds
2 | B2 | no binding
